Results as given in PMC6851287.
Results are given in words; binding and its absence hold for the method and conditions named. Binding seen in cells or lysates may run through a third protein. Some binding calls cover weakened binding; strength is not graded here.

By UniProt entry, the sequences of proteins in these tests, tags left out. Residues count along the entry.
UniProt P19838, residues 1-433: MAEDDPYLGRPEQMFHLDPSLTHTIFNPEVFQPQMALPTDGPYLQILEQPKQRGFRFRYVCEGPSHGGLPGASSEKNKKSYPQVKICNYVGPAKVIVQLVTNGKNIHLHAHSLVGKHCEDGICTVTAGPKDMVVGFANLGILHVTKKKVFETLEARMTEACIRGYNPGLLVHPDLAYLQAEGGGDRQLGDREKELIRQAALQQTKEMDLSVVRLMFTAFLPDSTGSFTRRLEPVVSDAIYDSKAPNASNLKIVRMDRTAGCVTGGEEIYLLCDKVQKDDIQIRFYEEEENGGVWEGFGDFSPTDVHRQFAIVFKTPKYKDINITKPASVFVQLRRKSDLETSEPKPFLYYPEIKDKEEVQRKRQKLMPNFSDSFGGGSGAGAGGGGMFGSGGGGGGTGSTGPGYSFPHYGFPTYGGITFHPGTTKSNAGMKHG
UniProt Q04206: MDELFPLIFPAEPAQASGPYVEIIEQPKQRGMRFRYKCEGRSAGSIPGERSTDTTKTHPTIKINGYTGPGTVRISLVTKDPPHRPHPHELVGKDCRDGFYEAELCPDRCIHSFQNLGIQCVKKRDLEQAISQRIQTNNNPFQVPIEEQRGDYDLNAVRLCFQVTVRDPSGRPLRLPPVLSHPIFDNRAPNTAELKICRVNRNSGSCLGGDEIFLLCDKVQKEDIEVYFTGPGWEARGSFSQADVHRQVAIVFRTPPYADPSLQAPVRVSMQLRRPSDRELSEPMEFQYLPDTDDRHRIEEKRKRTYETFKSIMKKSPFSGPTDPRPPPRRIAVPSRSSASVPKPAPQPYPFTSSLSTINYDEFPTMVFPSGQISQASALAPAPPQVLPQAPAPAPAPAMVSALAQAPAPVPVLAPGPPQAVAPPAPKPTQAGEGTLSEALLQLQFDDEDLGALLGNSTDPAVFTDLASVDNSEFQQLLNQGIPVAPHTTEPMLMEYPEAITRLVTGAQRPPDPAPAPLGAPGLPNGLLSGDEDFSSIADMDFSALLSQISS

Target: NFKB1 p50 (human (endogenous in primary monocyte-derived macrophages)) (UniProt P19838)
Test: co-IP; 50 μg anti-NFKB1 immobilised on coupling gel (Pierce coimmunoprecipitation kit), incubated with 50 μg of cytoplasmic or nuclear fractions of macrophages left uninfected or infected with HIV for 10 days; also nuclear extracts of uninfected macrophages treated with Tat, gp120 or RNA40 for 24 h; Western blot with anti-RELA or anti-RELB

With RELA (from UniProt Q04206 1-551) the binding was “binds”.
